{"source": "PubChem BioAssay AID504793 (Drosophila RNAi Screening Center, 2011)", "screen": "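Whole-genome screen for parts of the DNA damage checkpoint at G2/M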 (primary screen)", "cell system": "Drosophila S2R+ cells", "knock-down reagent": "long dsRNA against Drosophila genes, about 0.25 µg dsRNA per well", "timing": "4 days of dsRNA, then 4 hours of drug before read-out", "conditions": "doxorubicin 0.5 µM for 4 hours to cause double-strand breaks, in cells also given a low, harmless dose of dsRNA against nbs to sensitise the assay", "measurement": "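Per-well count of mitotic cells stained for phospho-histone H3 after doxorubicin exposure, used as mitotic index; counts are raw and not normalised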", "scale": "mitotic cells: higher = more cells in mitosis, weaker G2 arrest", "hit rule": "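a call needs confirmation in secondary tests, with other dsRNAs and a check of mitotic timing without damage, not just a high primary count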", "meaning of the calls": "active = confirmed in follow-up tests; inactive = not confirmed", "note": "The deposit covers about 23,000 reagents; shown is an unselected part of those that have a named target and a result. Of all reagents, 62 (0.27%) got an active call. 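Calls come from follow-up tests whose scores are not deposited, so confirmed genes may have low counts here; counts are not normalised per plate.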 Raw values are not corrected between plates. Reagents against one gene are numbered here."}
{"Target gene": "CG32551", "dsRNA no.": 1, "mitotic cells, replicate 1": 48, "Outcome": "inactive"}
{"Target gene": "sad (shadow)", "dsRNA no.": 1, "mitotic cells, replicate 1": 6, "Outcome": "inactive"}
{"Target gene": "sad (shadow)", "dsRNA no.": 2, "mitotic cells, replicate 1": 7, "Outcome": "inactive"}
{"Target gene": "CG6443", "dsRNA no.": 1, "mitotic cells, replicate 1": 2, "Outcome": "inactive"}
{"Target gene": "CG6443", "dsRNA no.": 2, "mitotic cells, replicate 1": 4, "Outcome": "inactive"}
{"Target gene": "CG4036", "dsRNA no.": 1, "mitotic cells, replicate 1": 4, "Outcome": "inactive"}
{"Target gene": "Neos (Neosin)", "dsRNA no.": 1, "mitotic cells, replicate 1": 10, "Outcome": "inactive"}

The list goes on, starting with the last 2 of the part before.
{"Target gene": "CG4036", "dsRNA no.": 1, "mitotic cells, replicate 1": 4, "Outcome": "inactive"}
{"Target gene": "Neos (Neosin)", "dsRNA no.": 1, "mitotic cells, replicate 1": 10, "Outcome": "inactive"}
{"Target gene": "CG42445", "dsRNA no.": 1, "mitotic cells, replicate 1": 6, "Outcome": "inactive"}
{"Target gene": "Dop2R (Dopamine 2-like receptor)", "dsRNA no.": 1, "mitotic cells, replicate 1": 4, "Outcome": "inactive"}
{"Target gene": "Dop2R (Dopamine 2-like receptor)", "dsRNA no.": 2, "mitotic cells, replicate 1": 2, "Outcome": "inactive"}
{"Target gene": "prim (primacord)", "dsRNA no.": 1, "mitotic cells, replicate 1": 4, "Outcome": "inactive"}
{"Target gene": "CG31777", "dsRNA no.": 1, "mitotic cells, replicate 1": 3, "Outcome": "inactive"}
{"Target gene": "PRL-1 (PRL-1 phosphatase)", "dsRNA no.": 1, "mitotic cells, replicate 1": 2, "Outcome": "inactive"}
{"Target gene": "PRL-1 (PRL-1 phosphatase)", "dsRNA no.": 2, "mitotic cells, replicate 1": 8, "Outcome": "inactive"}
